The list shows a part of the results.
Experiments:
Experiment in all cases: log2 fold change, soluble protein after heating vs DMSO (PISA); higher = thermal stabilisation; K562 lysate, 10 uM; active = over 0.2 and 3.5 SD of the protein, either way, in both replicates (recomputed)
erlotinib = compound: C#Cc1cccc(Nc2ncnc3cc(OCCOC)c(OCCOC)cc23)c1 [erlotinib]
Method in brief: (§1)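 K562 pellets were dounce-homogenised in PBS pH 7.4 containing 1 mM MgCl2, and the crude extract, at 1 mg/mL protein, was exposed to 10 μM compound for 30 min. Aliquots were heated for 3 min across 48°C-58°C, pooled, brought to 0.5% NP-40 at 4°C and spun at 21,000xg for 90 min, with the supernatant taken as soluble protein. TMTpro 16plex LC-MS/MS with equalised channel sums quantified that protein. Values are log-two fold changes in thermal stability relative to solvent controls, taken from duplicates.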

Protein sequences, listed by entry. Tags and fused reporters are not part of them. Lines headed by an entry give the natural chain unless they say otherwise; changes in a name come on top.
UniProt Q8N680: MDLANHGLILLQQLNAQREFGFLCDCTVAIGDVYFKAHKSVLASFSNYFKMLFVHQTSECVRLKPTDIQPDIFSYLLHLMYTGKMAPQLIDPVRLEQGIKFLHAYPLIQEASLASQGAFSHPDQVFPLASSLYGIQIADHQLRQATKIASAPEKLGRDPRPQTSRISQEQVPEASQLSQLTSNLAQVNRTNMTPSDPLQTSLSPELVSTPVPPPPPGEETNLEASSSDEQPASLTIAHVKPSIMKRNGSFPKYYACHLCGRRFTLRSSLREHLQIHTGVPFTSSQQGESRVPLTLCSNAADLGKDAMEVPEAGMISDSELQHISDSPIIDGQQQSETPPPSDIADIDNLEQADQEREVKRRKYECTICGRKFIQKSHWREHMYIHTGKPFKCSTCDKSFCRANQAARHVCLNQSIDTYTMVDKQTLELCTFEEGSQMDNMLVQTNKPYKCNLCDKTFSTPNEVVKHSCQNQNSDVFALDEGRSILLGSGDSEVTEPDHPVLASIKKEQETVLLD
UniProt P07947, whole entry, looked up: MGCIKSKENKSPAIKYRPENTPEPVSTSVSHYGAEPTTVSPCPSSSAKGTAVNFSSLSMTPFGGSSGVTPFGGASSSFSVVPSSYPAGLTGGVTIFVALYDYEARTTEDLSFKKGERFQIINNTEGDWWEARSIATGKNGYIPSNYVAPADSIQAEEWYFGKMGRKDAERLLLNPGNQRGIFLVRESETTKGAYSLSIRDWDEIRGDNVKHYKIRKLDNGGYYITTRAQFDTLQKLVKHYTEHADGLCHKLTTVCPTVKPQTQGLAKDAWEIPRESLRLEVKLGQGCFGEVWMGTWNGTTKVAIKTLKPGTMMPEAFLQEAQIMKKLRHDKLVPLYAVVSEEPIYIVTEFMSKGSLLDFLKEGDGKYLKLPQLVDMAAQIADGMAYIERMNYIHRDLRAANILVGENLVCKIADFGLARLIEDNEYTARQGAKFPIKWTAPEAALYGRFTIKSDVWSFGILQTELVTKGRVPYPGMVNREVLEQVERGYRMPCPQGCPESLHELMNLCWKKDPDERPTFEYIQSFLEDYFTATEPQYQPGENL
UniProt Q8WV99: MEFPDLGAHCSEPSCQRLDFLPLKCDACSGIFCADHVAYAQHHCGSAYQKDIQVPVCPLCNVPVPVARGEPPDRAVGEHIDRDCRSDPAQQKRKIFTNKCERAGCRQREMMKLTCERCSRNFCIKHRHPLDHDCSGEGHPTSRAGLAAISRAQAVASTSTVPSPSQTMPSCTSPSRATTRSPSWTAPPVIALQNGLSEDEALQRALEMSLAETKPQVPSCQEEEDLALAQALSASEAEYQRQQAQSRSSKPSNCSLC
UniProt Q8IZ13: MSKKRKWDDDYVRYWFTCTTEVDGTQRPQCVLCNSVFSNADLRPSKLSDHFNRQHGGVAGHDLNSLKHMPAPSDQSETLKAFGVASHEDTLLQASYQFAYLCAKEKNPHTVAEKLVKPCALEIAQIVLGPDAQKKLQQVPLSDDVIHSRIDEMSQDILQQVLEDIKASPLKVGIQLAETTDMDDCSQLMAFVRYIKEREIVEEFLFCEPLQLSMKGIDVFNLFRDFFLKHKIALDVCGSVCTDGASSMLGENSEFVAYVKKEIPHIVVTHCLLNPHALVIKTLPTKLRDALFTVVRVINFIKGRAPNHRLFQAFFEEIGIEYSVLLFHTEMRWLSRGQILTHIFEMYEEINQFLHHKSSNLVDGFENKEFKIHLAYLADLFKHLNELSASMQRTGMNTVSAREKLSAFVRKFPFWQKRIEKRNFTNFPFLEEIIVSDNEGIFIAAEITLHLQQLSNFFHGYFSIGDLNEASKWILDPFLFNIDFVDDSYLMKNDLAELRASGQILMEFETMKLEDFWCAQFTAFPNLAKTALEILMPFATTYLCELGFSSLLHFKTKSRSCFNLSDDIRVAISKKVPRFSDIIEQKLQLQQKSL
UniProt Q6FIF0: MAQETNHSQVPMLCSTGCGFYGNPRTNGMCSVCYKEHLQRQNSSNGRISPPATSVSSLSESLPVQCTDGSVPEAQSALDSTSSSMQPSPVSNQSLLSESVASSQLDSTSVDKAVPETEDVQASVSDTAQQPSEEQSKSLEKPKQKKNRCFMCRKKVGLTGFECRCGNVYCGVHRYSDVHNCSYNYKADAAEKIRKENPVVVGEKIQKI
UniProt P25490, whole entry, looked up: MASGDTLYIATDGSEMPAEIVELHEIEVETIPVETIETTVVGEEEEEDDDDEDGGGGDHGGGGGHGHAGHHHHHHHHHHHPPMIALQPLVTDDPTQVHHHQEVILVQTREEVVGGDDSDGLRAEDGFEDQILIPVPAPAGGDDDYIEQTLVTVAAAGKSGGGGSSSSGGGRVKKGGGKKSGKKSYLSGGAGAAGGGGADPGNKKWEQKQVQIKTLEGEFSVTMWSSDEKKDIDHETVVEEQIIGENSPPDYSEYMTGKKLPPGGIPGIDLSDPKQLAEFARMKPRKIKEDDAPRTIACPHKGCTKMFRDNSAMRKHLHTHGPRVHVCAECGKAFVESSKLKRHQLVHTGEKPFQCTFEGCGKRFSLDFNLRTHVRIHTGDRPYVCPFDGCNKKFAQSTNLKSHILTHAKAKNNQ
UniProt Q9NRH1: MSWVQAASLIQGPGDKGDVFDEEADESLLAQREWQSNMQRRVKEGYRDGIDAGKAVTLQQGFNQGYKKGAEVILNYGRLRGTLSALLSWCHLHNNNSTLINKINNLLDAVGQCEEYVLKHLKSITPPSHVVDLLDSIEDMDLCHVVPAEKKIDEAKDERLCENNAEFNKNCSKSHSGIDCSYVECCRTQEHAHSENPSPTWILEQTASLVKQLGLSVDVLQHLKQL
UniProt Q04917: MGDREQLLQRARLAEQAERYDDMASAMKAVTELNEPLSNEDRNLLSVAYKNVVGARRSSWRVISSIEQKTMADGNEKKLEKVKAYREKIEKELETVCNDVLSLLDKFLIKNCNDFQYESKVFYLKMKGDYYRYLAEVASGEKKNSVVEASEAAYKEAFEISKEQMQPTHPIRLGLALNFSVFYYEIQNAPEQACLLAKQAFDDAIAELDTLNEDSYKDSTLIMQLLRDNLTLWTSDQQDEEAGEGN
UniProt P49750: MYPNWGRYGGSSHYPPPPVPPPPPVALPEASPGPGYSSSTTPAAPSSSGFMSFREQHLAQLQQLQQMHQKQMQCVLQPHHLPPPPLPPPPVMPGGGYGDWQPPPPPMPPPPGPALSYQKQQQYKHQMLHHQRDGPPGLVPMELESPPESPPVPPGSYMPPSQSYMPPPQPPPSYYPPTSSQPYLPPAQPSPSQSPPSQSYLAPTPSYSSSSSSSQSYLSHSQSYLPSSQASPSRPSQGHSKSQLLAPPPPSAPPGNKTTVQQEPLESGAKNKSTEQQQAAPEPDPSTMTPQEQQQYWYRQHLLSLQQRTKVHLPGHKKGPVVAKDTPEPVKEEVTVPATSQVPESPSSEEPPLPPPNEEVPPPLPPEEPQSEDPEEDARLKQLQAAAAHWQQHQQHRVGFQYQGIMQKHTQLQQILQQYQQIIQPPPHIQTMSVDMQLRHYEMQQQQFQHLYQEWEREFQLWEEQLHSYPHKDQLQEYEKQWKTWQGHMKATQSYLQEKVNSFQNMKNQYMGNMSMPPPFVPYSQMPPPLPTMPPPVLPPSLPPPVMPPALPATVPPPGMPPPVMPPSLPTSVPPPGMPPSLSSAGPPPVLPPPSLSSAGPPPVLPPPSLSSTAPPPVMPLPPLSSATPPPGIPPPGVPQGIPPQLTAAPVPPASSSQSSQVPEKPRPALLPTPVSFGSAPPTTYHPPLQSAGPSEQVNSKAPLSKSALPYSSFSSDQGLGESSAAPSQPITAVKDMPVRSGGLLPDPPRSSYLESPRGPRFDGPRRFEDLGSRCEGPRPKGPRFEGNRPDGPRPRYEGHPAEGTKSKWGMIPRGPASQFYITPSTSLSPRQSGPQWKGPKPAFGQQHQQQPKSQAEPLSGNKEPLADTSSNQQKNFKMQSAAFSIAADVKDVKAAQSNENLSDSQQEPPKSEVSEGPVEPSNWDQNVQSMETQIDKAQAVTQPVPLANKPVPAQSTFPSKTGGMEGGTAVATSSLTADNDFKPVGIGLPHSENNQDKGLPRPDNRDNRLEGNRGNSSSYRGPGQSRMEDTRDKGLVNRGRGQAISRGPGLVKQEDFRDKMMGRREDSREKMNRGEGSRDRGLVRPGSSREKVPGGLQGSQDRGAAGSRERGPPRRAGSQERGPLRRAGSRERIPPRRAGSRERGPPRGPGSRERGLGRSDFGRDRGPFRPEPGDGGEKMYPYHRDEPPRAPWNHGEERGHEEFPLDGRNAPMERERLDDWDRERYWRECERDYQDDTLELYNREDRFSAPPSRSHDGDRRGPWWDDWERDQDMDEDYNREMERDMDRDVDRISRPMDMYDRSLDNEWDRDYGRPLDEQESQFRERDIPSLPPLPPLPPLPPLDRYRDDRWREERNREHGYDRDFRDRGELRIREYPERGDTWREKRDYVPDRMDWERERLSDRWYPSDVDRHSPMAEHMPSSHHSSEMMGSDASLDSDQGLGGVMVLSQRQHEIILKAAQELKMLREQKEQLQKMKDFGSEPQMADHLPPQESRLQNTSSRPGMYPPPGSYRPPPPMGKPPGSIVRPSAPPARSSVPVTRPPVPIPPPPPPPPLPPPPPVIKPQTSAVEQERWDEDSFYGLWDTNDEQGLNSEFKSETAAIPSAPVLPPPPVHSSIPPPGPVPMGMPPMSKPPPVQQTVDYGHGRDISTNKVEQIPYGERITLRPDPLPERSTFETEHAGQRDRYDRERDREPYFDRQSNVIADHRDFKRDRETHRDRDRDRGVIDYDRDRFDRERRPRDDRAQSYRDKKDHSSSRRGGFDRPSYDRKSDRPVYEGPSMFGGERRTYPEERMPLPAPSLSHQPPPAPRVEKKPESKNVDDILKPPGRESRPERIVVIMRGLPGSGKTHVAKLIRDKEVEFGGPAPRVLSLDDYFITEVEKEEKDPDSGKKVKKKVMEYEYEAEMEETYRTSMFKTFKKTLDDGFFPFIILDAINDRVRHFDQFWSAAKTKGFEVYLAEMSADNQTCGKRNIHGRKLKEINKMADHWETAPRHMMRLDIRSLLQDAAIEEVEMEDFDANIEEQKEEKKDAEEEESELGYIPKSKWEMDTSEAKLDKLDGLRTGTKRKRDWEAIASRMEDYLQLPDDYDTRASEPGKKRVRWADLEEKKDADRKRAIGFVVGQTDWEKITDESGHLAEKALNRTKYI
UniProt Q8WW38: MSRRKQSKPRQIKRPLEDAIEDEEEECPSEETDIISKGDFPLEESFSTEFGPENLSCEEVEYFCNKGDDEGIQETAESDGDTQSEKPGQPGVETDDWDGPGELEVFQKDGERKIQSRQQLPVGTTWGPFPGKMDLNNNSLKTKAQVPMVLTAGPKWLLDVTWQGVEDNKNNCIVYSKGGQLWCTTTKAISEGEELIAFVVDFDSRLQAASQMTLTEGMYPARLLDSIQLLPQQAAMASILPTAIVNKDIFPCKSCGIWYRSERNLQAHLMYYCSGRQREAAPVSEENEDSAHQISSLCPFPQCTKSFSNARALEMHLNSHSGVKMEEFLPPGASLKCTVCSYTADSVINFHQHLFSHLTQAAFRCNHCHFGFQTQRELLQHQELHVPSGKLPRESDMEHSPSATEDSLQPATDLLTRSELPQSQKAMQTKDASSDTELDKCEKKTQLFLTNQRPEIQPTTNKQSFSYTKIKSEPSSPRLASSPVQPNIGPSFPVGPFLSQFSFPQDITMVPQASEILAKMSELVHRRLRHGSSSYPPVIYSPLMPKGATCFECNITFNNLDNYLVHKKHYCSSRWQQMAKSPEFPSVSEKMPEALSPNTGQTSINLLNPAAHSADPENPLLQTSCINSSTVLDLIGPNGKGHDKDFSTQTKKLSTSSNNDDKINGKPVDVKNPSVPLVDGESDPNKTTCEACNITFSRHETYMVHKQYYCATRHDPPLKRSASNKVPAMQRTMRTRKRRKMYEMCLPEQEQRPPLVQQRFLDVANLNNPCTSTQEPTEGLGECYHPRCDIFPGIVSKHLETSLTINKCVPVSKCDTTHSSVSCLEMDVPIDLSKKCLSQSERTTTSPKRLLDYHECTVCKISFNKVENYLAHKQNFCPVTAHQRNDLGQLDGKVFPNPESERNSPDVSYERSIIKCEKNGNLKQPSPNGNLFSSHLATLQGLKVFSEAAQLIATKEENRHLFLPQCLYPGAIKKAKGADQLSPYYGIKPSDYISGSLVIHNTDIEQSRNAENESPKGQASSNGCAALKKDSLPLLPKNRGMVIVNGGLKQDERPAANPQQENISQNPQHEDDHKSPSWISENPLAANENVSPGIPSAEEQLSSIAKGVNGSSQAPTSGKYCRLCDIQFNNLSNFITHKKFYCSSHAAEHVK
UniProt Q8N567: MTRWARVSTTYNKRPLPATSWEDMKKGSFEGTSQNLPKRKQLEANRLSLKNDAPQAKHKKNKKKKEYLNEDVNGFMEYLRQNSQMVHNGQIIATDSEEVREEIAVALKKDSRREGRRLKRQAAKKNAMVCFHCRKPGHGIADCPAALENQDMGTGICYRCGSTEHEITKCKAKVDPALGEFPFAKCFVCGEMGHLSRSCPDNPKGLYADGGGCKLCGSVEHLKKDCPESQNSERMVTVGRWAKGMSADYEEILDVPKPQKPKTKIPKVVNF

[1] = compound: C/C(=N\NC(=O)C1=CC(=CC=C1)S(=O)(=O)N2CCOCC2)/C3=C(C=CC(=C3)Cl)O
Method in brief: as §1

[2] = compound: C1=CC(=CC=C1C2=NC3=C(N2)C=C(C=C3)C(=O)N)OC4=CC=C(C=C4)Cl
Method in brief: as §1

[3] = compound: C1=CC2=C(C=CC(=C2)/C=C\3/C(=O)NC(=NCC4=CC=CS4)S3)N=C1
Method in brief: as §1

[4] = compound: C1=CC2=NC=CN=C2C=C1/C=C/3\C(=O)NC(=O)S3
Method in brief: as §1

[5] = compound: C1=CC=C(C=C1)C2=NC(=C(N2)C3=CC=NC=C3)C4=CC(=C(C=C4)Cl)O
Method in brief: as §1

[6] = compound: C1=CC=C2C(=C1)C3=NNC4=CC=CC(=C43)C2=O
Method in brief: as §1

[7] = compound: C1CCN(C1)C(=O)NC2=CC=CC(=C2)NC3=NC=C(C(=N3)NCCC4=CN=CN4)Br
Method in brief: as §1

[8] = compound: C1CN(CCC1(CC2=CC=C(C=C2)Cl)N)C3=NC=NC4=C3C=CN4
Method in brief: as §1

IRAK-1-4 Inhibitor I = compound: C1COCCN1CCN2C3=CC=CC=C3N=C2NC(=O)C4=CC(=CC=C4)[N+](=O)[O-] [IRAK-1-4 Inhibitor I]
Method in brief: as §1

Measured: log2 fold change

ZBTB2 (UniProt Q8N680)
inactive: erlotinib 0.105 | [1] -0.119 | [2] -0.051 | [3] -0.069 | [4] 0.113 | [5] -0.025 | [6] 0.016 | [7] -0.03 | [8] -0.034 | IRAK-1-4 Inhibitor I 0.086

ZCCHC8 (UniProt Q6NZY4)
inactive: erlotinib 0.016 | [1] 0.04 | [2] 0.02 | [3] -0.02 | [4] 0.017 | [5] 0.015 | [6] 0 | [7] -0.011 | [8] 0.011 | IRAK-1-4 Inhibitor I 0.014

YES1 (UniProt P07947)
inactive: erlotinib -0.045 | [1] 0.064 | [2] 0.005 | [3] -0.045 | [4] -0.023 | [5] -0.031 | [6] -0.105 | [7] 0.027 | [8] 0.016 | IRAK-1-4 Inhibitor I 0.003

ZFAND2B (UniProt Q8WV99)
inactive: erlotinib 0.013 | [1] 0.125 | [2] -0.028 | [3] -0.08 | [4] 0.008 | [5] 0.043 | [6] 0.059 | [7] -0.053 | [8] 0.07 | IRAK-1-4 Inhibitor I -0.045

ZBED8 (UniProt Q8IZ13)
inactive: erlotinib -0.001 | [1] 0.111 | [2] 0.013 | [3] 0.186 | [4] -0.058 | [5] 0.037 | [6] -0.169 | [7] -0.038 | [8] 0.086 | IRAK-1-4 Inhibitor I 0.005

YWHAQ (UniProt P27348)
inactive: erlotinib 0.026 | [1] 0.046 | [2] 0.016 | [3] 0.012 | [4] 0.017 | [5] 0.014 | [6] 0.021 | [7] -0.006 | [8] 0.022 | IRAK-1-4 Inhibitor I 0.013

ZC3H18 (UniProt E7ERS3)
inactive: erlotinib -0.024 | [1] -0.038 | [2] 0.027 | [3] 0.001 | [4] -0.024 | [5] -0.003 | [6] 0.004 | [7] 0 | [8] -0.014 | IRAK-1-4 Inhibitor I 0.007

YIPF3 (UniProt Q9GZM5)
inactive: erlotinib -0.001 | [1] -0.002 | [2] -0.047 | [3] 0.017 | [4] -0.063 | [5] 0.003 | [6] 0.036 | [7] -0.01 | [8] 0.008 | IRAK-1-4 Inhibitor I 0.023

ZFAND6 (UniProt Q6FIF0)
inactive: erlotinib 0.037 | [1] 0.006 | [2] -0.033 | [3] 0.013 | [4] 0.041 | [5] -0.026 | [6] 0.001 | [7] -0.006 | [8] -0.002 | IRAK-1-4 Inhibitor I 0.035

Two neighbouring entries out of the list so far:
YWHAQ (UniProt P27348)
inactive: erlotinib 0.026 | [1] 0.046 | [2] 0.016 | [3] 0.012 | [4] 0.017 | [5] 0.014 | [6] 0.021 | [7] -0.006 | [8] 0.022 | IRAK-1-4 Inhibitor I 0.013

ZC3H18 (UniProt E7ERS3)
inactive: erlotinib -0.024 | [1] -0.038 | [2] 0.027 | [3] 0.001 | [4] -0.024 | [5] -0.003 | [6] 0.004 | [7] 0 | [8] -0.014 | IRAK-1-4 Inhibitor I 0.007

(next part)

YBX1 (UniProt P67809)
inactive: erlotinib 0.011 | [1] -0.065 | [2] -0.009 | [3] 0 | [4] -0.048 | [5] 0.018 | [6] 0.01 | [7] 0.014 | [8] -0.011 | IRAK-1-4 Inhibitor I 0.021

ZC3H7B (UniProt Q9UGR2)
inactive: erlotinib -0.056 | [1] -0.01 | [2] 0.02 | [3] 0.073 | [4] 0.154 | [5] 0.001 | [6] -0.021 | [7] -0.018 | [8] 0.051 | IRAK-1-4 Inhibitor I 0.028

YY1 (UniProt P25490)
inactive: erlotinib -0.03 | [1] -0.03 | [2] 0 | [3] 0.002 | [4] 0.019 | [5] 0.009 | [6] 0.032 | [7] 0.045 | [8] -0.047 | IRAK-1-4 Inhibitor I -0.021

YAE1 (UniProt Q9NRH1)
inactive: erlotinib -0.041 | [1] 0.069 | [2] 0.123 | [3] 0.009 | [4] 0.025 | [5] -0.012 | [6] 0.038 | [7] -0.055 | [8] 0.034 | IRAK-1-4 Inhibitor I 0.147

YWHAH (UniProt Q04917)
inactive: erlotinib -0.02 | [1] 0.039 | [2] 0 | [3] 0.001 | [4] -0.041 | [5] 0.006 | [6] 0.006 | [7] 0.006 | [8] -0.003 | IRAK-1-4 Inhibitor I -0.016

YLPM1 (UniProt P49750)
inactive: erlotinib 0.026 | [1] -0.04 | [2] 0.035 | [3] -0.043 | [4] -0.018 | [5] -0.004 | [6] 0.022 | [7] 0.044 | [8] 0.019 | IRAK-1-4 Inhibitor I 0.027

ZFPM2 (UniProt Q8WW38)
inactive: erlotinib -0.064 | [1] 0.031 | [2] 0.028 | [3] -0.095 | [4] -0.258 | [6] 0.006 | [7] 0.023 | [8] -0.056

ZADH2 (UniProt Q8N4Q0)
inactive: erlotinib 0.017 | [1] 0.25 | [2] -0.024 | [3] 0.015 | [4] 0.083 | [5] 0.019 | [6] -0.036 | IRAK-1-4 Inhibitor I 0.026

ZBED1 (UniProt O96006)
inactive: erlotinib 0 | [1] 0.037 | [2] -0.027 | [3] -0.035 | [4] -0.061 | [5] 0.02 | [6] 0.011 | [7] -0.084 | [8] 0.075 | IRAK-1-4 Inhibitor I -0.01

ZCCHC9 (UniProt Q8N567)
inactive: erlotinib -0.032 | [1] 0.021 | [2] 0.115 | [3] 0.051 | [4] -0.033 | [5] 0.156 | [6] -0.047 | [7] 0.007 | [8] -0.002 | IRAK-1-4 Inhibitor I 0.056

XRCC1 (UniProt F5H8D7)
inactive: erlotinib 0.132 | [1] -0.138 | [2] 0.45 | [3] -0.095 | [4] 0.008 | [6] -0.255 | [7] 0.002 | [8] 0.183

YTHDC2 (UniProt Q9H6S0)
inactive: erlotinib -0.008 | [1] 0.065 | [2] 0.012 | [3] 0.027 | [4] 0.02 | [5] -0.001 | [6] 0.074 | [7] -0.019 | [8] 0.029 | IRAK-1-4 Inhibitor I 0.002

ZG16B (UniProt Q96DA0)
inactive: erlotinib -0.974 | [2] -0.149 | [4] -1.46 | [5] -0.046 | [7] 0.082 | [8] -0.828 | IRAK-1-4 Inhibitor I -0.162

ZC3HAV1 (UniProt Q7Z2W4)
inactive: erlotinib 0.026 | [1] -0.041 | [2] 0.023 | [3] 0.018 | [4] -0.016 | [5] -0.001 | [6] -0.015 | [7] -0.024 | [8] -0.002 | IRAK-1-4 Inhibitor I 0.02

ZBTB43 (UniProt O43298)
inactive: erlotinib 0.063 | [1] -0.042 | [2] -0.092 | [3] 0.011 | [5] 0.001 | [6] 0.063 | [7] 0.019 | [8] 0.133 | IRAK-1-4 Inhibitor I 0.065

ZFYVE26 (UniProt Q68DK2)
inactive: erlotinib 0.049 | [1] -0.214 | [2] 0.005 | [3] -0.19 | [4] 0.142 | [5] -0.213 | [6] 0.006 | IRAK-1-4 Inhibitor I 0.211

ZGPAT (UniProt Q8N5A5)
inactive: erlotinib -0.03 | [1] -1.96 | [2] -0.04 | [3] -0.135 | [4] 0.021 | [5] 0.088 | [6] 0.124 | [7] 0.006 | [8] -0.107 | IRAK-1-4 Inhibitor I 0.002

Source: the supplement of paper PMC10849652
